In the supplement of paper PMC6078165:
± gives the standard deviation of the averaged measurements. The reference is the same well before dosing, and untreated signal decays as well.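 Fibroblast labels denote human fibroblasts, mainly primary ones from uterus (C12385, HUF), lung (H6013), bone (Hs27A), adrenal (HADF) and skin (WS1), plus mammary HMF and breast cancer-associated Hs343T. Cancer cells are basal-like or mesenchymal-like triple-negative breast cancer lines. A hit is a response shift exceeding 3x replicate standard deviation. The tissue of the other fibroblasts is not given here.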

Test system: BT20
Assay: relative JC-1 red fluorescence (viability) vs pre-drug, coculture with fibroblast (fraction); higher = more viable cancer cells
Details: 10 µM
Experimental: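 JC-1 labelled TNBC cells cocultured 1:1 (1,500 cells each) with CellTrace Violet stained primary or stromal fibroblasts in 384-well plates in FluoroBrite medium, treated with one of 42 anticancer drugs at 0.1, 1, 10 or 100 uM. JC-1 red fluorescence (mitochondrial integrity in cancer cells only) was read by plate reader every 8 h for 72 h. Values are normalised to each well's pre-drug value. The stock of one drug was tenfold lower, so its dose labels may be too high.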

CS(=O)(=O)CCNCc1ccc(-c2ccc3ncnc(Nc4ccc(OCc5cccc(F)c5)c(Cl)c4)c3c2)o1 [Lapatinib]
relative JC-1 red fluorescence
Details	8 h	16 h	24 h	32 h	40 h	48 h	56 h	64 h	72 h
coculture fibroblast: C12385	0.8847 ± 0.0042	0.804 ± 0.017	0.736 ± 0.016	0.725 ± 0.011	0.7015 ± 0.0037	0.6985 ± 0.0063	0.699 ± 0.009	0.702 ± 0.013	0.698 ± 0.015
coculture fibroblast: H6013	0.944 ± 0.066	0.929 ± 0.012	0.86 ± 0.027	0.88 ± 0.036	0.84 ± 0.036	0.823 ± 0.028	0.825 ± 0.02	0.811 ± 0.024	0.81 ± 0.022
coculture fibroblast: H6019	0.8909 ± 0.0052	0.851 ± 0.016	0.8422 ± 0.0083	0.79819 ± 0.00052	0.796 ± 0.012	0.796 ± 0.017	0.792 ± 0.021	0.773 ± 0.025	0.762 ± 0.03
coculture fibroblast: H6076	0.823 ± 0.12	0.941 ± 0.032	0.91 ± 0.045	0.873 ± 0.03	0.869 ± 0.079	0.85 ± 0.081	0.802 ± 0.095	0.82 ± 0.12	0.796 ± 0.12
coculture fibroblast: H6231	0.757 ± 0.051	0.898 ± 0.038	0.788 ± 0.03	0.731 ± 0.026	0.7 ± 0.049	0.668 ± 0.051	0.657 ± 0.04	0.641 ± 0.046	0.636 ± 0.052
coculture fibroblast: HADF	0.793 ± 0.083	0.981 ± 0.021	0.855 ± 0.084	0.883 ± 0.1	0.865 ± 0.084	0.837 ± 0.082	0.82 ± 0.066	0.805 ± 0.058	0.782 ± 0.055
coculture fibroblast: HCFa	0.857 ± 0.13	0.927 ± 0.03	0.89 ± 0.05	0.918 ± 0.045	0.932 ± 0.041	0.928 ± 0.044	0.925 ± 0.05	0.935 ± 0.048	0.905 ± 0.06
coculture fibroblast: HCPF	0.769 ± 0.098	0.887 ± 0.16	0.912 ± 0.033	0.843 ± 0.024	0.788 ± 0.014	0.751 ± 0.012	0.698 ± 0.033	0.679 ± 0.012	0.643 ± 0.019
coculture fibroblast: HHSteC	0.959 ± 0.055	0.9 ± 0.024	0.859 ± 0.032	0.821 ± 0.056	0.782 ± 0.071	0.77 ± 0.065	0.761 ± 0.07	0.774 ± 0.073	0.758 ± 0.07
coculture fibroblast: HMF	0.833 ± 0.14	0.99 ± 0.013	0.895 ± 0.0095	0.828 ± 0.019	0.77 ± 0.032	0.713 ± 0.045	0.679 ± 0.062	0.641 ± 0.053	0.62 ± 0.035
coculture fibroblast: HPFa	0.901 ± 0.084	0.936 ± 0.01	0.907 ± 0.029	0.865 ± 0.039	0.863 ± 0.036	0.855 ± 0.03	0.8616 ± 0.0024	0.868 ± 0.02	0.869 ± 0.038
coculture fibroblast: HUF	0.924 ± 0.026	0.831 ± 0.02	0.776 ± 0.017	0.715 ± 0.02	0.696 ± 0.019	0.676 ± 0.022	0.679 ± 0.044	0.699 ± 0.057	0.695 ± 0.082
coculture fibroblast: Hs5	0.721 ± 0.038	0.94 ± 0.026	0.87 ± 0.029	0.829 ± 0.054	0.806 ± 0.06	0.793 ± 0.075	0.779 ± 0.07	0.761 ± 0.081	0.748 ± 0.073
coculture fibroblast: Hs27A	0.807 ± 0.1	0.807 ± 0.15	0.894 ± 0.034	0.845 ± 0.099	0.808 ± 0.12	0.852 ± 0.056	0.901 ± 0.029	0.933 ± 0.081	0.898 ± 0.076
coculture fibroblast: Hs343T	0.827 ± 0.016	0.923 ± 0.014	0.829 ± 0.021	0.786 ± 0.016	0.7314 ± 0.0041	0.69227 ± 0.00034	0.656 ± 0.015	0.641 ± 0.016	0.615 ± 0.019
coculture fibroblast: WS1	0.86 ± 0.02	0.832 ± 0.055	0.83 ± 0.12	0.851 ± 0.13	0.848 ± 0.14	0.849 ± 0.14	0.847 ± 0.14	0.83 ± 0.12	0.813 ± 0.1
